Results on 1 substance are retold here after publication PMC3595218.

Chains of the proteins cited; added tags and fusions are not shown. Lines headed by an entry give the natural chain unless they say otherwise; changes in a name come on top. Residues count along the entry.
UniProt P02647, residues 19-267: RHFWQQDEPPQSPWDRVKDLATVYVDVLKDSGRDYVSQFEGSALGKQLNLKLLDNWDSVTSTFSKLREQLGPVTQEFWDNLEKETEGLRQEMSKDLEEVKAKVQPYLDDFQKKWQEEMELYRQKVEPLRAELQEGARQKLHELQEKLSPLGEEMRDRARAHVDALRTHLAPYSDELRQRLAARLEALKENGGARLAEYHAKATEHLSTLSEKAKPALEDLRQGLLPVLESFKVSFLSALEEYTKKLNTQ
UniProt Q15465: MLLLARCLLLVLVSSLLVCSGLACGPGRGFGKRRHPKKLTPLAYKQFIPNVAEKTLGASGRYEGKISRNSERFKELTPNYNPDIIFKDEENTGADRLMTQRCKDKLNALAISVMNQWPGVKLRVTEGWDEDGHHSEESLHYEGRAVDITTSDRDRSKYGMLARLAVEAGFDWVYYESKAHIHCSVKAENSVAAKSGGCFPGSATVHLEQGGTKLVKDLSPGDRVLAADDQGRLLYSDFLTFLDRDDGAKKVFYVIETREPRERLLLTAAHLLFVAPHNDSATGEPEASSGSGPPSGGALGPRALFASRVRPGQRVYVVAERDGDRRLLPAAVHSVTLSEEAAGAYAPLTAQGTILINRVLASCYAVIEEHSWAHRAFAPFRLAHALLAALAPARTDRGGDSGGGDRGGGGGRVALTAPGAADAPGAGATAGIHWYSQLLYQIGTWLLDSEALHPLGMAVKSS

This assay concerns the target human high-density lipoprotein (human) (UniProt P02647). Briefly: co-IP; supernatants of transfected HeLa cells grown 2 days in DMEM + 1% ITS with VLDL, LDL or HDL; 50 mM Tris pH 7.4; overnight with Protein-G agarose and antibodies to apoB or apoA1; washed with 50 mM Tris pH 7.4 + 0.15 M NaCl; WB; only the target purified.

These are yes or no findings as the source states them, for the method shown. Binding seen in cells or lysates may run through a third protein.

As for “Shh-N^C24S (from UniProt Q15465) (ligand)”, the binding result is “no binding”.
